From article PMC6273799, “The Interference of Selected Cytotoxic Alkaloids with the Cytoskeleton: An Insight into Their Modes of Action” (Molecules, 2016)

Test system: MCF-7 cells
Experiment: MTT cytotoxicity assay, MCF-7
Format: cell-based
Details: Homo sapiens, MCF7, 72 h, read-out: IC50 MCF-7
Experimental: The anti-proliferative effects of alkaloids were assessed using the MTT assay, as previously described. In brief, 1 × 10^4 cells were seeded in 96-well-plates and incubated with serial dilutions of alkaloids for 48 h (Hela, U2OS) and 72 h (MCF-7). MTT solution was then added and incubated for 2 h. After the addition of DMSO, the plate was read at 570 nm using the Tecan infinite M200 Pro (Tecan, Crailsheim, Germany).
The IC50 was determined as the amount of the substances needed to reduce 50% cell viability/tubulin polymerization and calculated from concentration-response curves by Sigmaplot software (Systat Software Inc., San Jose, CA, USA). All experiments were performed at least three times. Data are presented as the mean ± standard deviation. Statistical comparison between controls and different treatments were performed by an unpaired Student’s t-test. Significance was considered at p < 0.05.

SMILES: COc1cc2c(c(OC)c1OC)-c1ccc(OC)c(=O)cc1[C@@H](NC(C)=O)CC2 [Colchicine, colchicine]
- IC50: 20 ± 10 nM
